Test results published in PubChem BioAssay (NCATS).
Values joined by “and” are separate entries in the source; they are usually repeats but may differ in a detail not shown here. Equal values may be shown once. This is one part of the list. Shown are side measurements of this screen, not its main read-out; they come without a call. Most of these compounds were active or inconclusive in the main read-out, so they are no random draw. Potencies come from curve fits of mixed quality, noted in brackets.

assay: qHTS assay for small molecule antagonists of peroxisome proliferator-activated receptor gamma signaling (AID 588537); settings: HEK293 PPARg-UAS-bla, beta-lactamase ratio, antagonist mode; measured here: W460 blue channel
Summary of the method: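 Fluorescence at 460 and 530 nm (405 nm excitation) reported beta-lactamase cleavage of CCF4 after 2 h room-temperature loading. HEK293 reporter cells in 1% charcoal/dextran-treated FBS had received compound and rosiglitazone for 16 h.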

Row | SMILES | AC50
1 | C[C@]12C=CC(=O)C=C1CC[C@@H]1[C@@H]2C(=O)C[C@@]2(C)[C@H]1CC[C@]2(O)C(=O)CO | 50.1 µM [rising, single point]
2 | ClCCl | 50.1 µM [rising, single point]
3 | O=C1OC(=O)c2ccccc21 | 50.1 µM [rising, single point]
4 | CCCCCCCCCCCCc1ccccc1 | 0.001 µM [falling, full curve, poor fit]
5 | CC(C)CCCCCCCCCCCCCCC(=O)O | 0.00316 µM [falling, full curve, poor fit]
6 | Cc1ccc(C)c(N)c1 | 50.1 µM [rising, single point]
7 | CCCC=O | 31.6 µM [rising, single point]
8 | CCCCOC(=O)/C=C\C(=O)OCCCC | 28.2 µM [falling, full curve, poor fit]
9 | O=C1NS(=O)(=O)c2ccccc21 | 0.00631 µM [falling, full curve, poor fit]
10 | OCC(CO)(CBr)CBr | 70.8 µM [rising, single point]
11 | CC(=O)OCc1ccco1 | 50.1 µM [rising, single point]
12 | O=C(O)CNC(=O)c1ccc([N+](=O)[O-])cc1 | 70.8 µM [rising, single point]
13 | Cc1ccc([N+](=O)[O-])c(C)c1 | 70.8 µM [rising, single point]
14 | Cc1cc(C)nc(NS(=O)(=O)c2ccc(N)cc2)n1 | 50.1 µM [rising, single point] and 5.62 nM [falling, full curve, poor fit]
15 | C=C(C)OC(C)=O | 50.1 µM [rising, single point]
16 | CC1(C)CC(N)CC(C)(CN)C1 (stereo not given) | 0.00126 µM [falling, full curve, poor fit]
17 | CCCCCC1CCC(=O)O1 (stereo not given) | 0.0355 µM [falling, full curve, poor fit]
18 | CCCCC(CC)COC(=O)COc1ccc(Cl)cc1Cl (stereo not given) | 50.1 µM [rising, single point] and 5.01 nM [falling, full curve, poor fit]
19 | COc1ccc(CCC(=O)c2c(O)cc(O[C@@H]3O[C@H](CO)[C@@H](O)[C@H](O)[C@H]3O[C@@H]3O[C@@H](C)[C@H](O)[C@@H](O)[C@H]3O)cc2O)cc1O | 63.1 µM [rising, single point]
20 | Nc1cccc(S(=O)(=O)O)c1 | 44.7 µM [rising, single point]

Row | SMILES | AC50
21 | O=CCCCC=O | 44.7 µM [rising, single point]
22 | CC(C)C(C)(C)C(C)(C)C(C)(C)S | 0.00355 µM [falling, full curve, poor fit]
23 | CC(=O)CC(=O)Nc1ccccc1C | 0.0112 µM [rising, full curve, poor fit]
24 | O=C(O)CCSSCCC(=O)O | 63.1 µM [rising, single point]
25 | CCOc1ccccc1N | 70.8 µM [rising, single point]
26 | Clc1cc(Cl)c(Cl)cc1Cl | 44.7 µM [rising, partial curve]
27 | Nc1ccc(S(=O)(=O)O)cc1 | 50.1 µM [rising, single point] and 1.58 nM [falling, full curve, poor fit]
28 | CC/C=C1/OC(=O)c2ccccc21 | 63.1 µM [rising, single point]
29 | O=C(O)c1ccccc1Cl | 50.1 µM [rising, single point]
30 | C=CC(=C)CCC=C(C)C | 50.1 µM [rising, single point]
31 | Clc1cc(Cl)cc(Cl)c1 | 50.1 µM [rising, single point]
32 | CC(=O)CC(C)C | 50.1 µM [rising, single point]
33 | CCOCCOCCOC(C)=O | 0.0501 µM [falling, full curve, poor fit]
34 | COc1ccc(CN(CCN(C)C)c2ccccn2)cc1 | 70.8 µM [rising, single point]
35 | CC(N)CN (stereo not given) | 50.1 µM [rising, single point]
36 | CCOC(=O)CC(O)(CC(=O)OCC)C(=O)OCC | 0.00316 µM [falling, full curve, poor fit]
37 | Cc1cc(C)cc([N+](=O)[O-])c1 | 50.1 µM [rising, single point]
38 | NC(=O)NC(N)=O | 70.8 µM [rising, single point]
39 | Nc1nc(-c2ccccc2)cs1 | 28.2 µM [falling, full curve, poor fit]
40 | CC(C)c1cccc(C(C)C)c1 | 0.0447 µM [falling, full curve, poor fit]
